# In patent US20050142640A1:
# Results are given in words; binding and its absence hold for the method and conditions named. Binding calls can cover weak binding; strength is not graded here.
# Target: HLA-A*0201 (human)
# Assay: competition with 150 nM fluorescent reference peptide on acid-stripped JY cells, flow cytometry; positive = 50% inhibition at 20 µg/ml or less; FIG. 1
row,binding,Binder
1,binds,"TLAPATEPA [MUC1^79-87 (…), polypeptide of SEQ ID NO: 5]"
2,binds,"FLSFHISNL [MUC1^264-272 (…), polypeptide of SEQ ID NO: 4]"
3,binds,"SLSYTNPAV [MUC1^460-468 (…), polypeptide of SEQ ID NO: 6]"

# Target: HLA-A*0201 (human)
# Assay: competition assay on acid-stripped JY cells, flow cytometry
row,Binder,binding
1,"FLSFHISNL [MUC1^264-272 (…), polypeptide of SEQ ID NO: 4]",binds
2,"SLSYTNPAV [MUC1^460-468 (…), polypeptide of SEQ ID NO: 6]",binds

# Other lines, results leading:
row,binding,Binder
1,binds,"LLLTVLTVV [MUC1^13-21 (…), polypeptide of SEQ ID NO: 65]"
2,binds,"ALGSTTPPA [MUC1^107-115 (…), polypeptide of SEQ ID NO: 66]"
3,binds,"TLAPATEPA [MUC1^79-87 (…), polypeptide of SEQ ID NO: 5]"
